Test results published in paper PMC12463876, “AI-assisted design of ligands for lipocalin-2” (Frontiers in Immunology, 2025).
These are yes or no findings as the source states them, for the method shown. Each block holds one binder with its values, some of them ahead of it.

Legend:
Assay in all cases: dynamic light scattering; Prometheus Panta (NanoTemper), PBS (20 mM sodium phosphate, 150 mM NaCl, pH 7.4), triplicate; 0.32, 0.22, 0.18, 0.10 and 0.2 mg/mL for MinP-1 to MinP-5; both purified
MinP-3 = biological target: MinP-3
MinP-1 = biological target: MinP-1
MinP-2 = biological target: MinP-2

- binding (MinP-3): no binding (tested: ~10–12 µM)
B1: MinP-3 (designed binder)
chain: MKRVEIKALDNVENANAIAEVLKSHGIPVEVKEVSPDLKEVTSEAVVSEELAEKIKESLIELAKKLGPVGPIHISISDV

- binding (MinP-1): no binding (tested: ~10–12 µM)
B2: MinP-1 (designed binder)
chain: KKKVAVVVVRKTPEEAKAGFEEAKPNVELVASILSEDFEVETLAVTEEEYDEVLEKYDFVVRVYKMDLESAKISAKLIREHIKEIVK

- binding (MinP-2): no binding (tested: ~10–12 µM)
B3: MinP-2 (designed binder)
chain: MSKATVYDVSTGKTYEVSLEDAKKLASYAVYEGGYPLRISVAPEDTKAILDAIKNTSKEKAEEGKKLLEELN
notes: de novo miniprotein (RFdiffusion, ProteinMPNN) designed against LCN2; Cloned into pET30b with a Twin-Strep tag; also called MiniP-2; source: E. coli BL21 (DE3) pLysS, purified (Strep-Tactin XT magnetic beads, dialysis)
